These are yes or no findings as the source states them, for the method shown. Some results given as binding are weak or reduced against the parent protein; the word gives no strength. Sequences can lack the tags named with a protein.
Molecular target: T1, EphB4 Fc (UniProt P54761)
T1 sequence: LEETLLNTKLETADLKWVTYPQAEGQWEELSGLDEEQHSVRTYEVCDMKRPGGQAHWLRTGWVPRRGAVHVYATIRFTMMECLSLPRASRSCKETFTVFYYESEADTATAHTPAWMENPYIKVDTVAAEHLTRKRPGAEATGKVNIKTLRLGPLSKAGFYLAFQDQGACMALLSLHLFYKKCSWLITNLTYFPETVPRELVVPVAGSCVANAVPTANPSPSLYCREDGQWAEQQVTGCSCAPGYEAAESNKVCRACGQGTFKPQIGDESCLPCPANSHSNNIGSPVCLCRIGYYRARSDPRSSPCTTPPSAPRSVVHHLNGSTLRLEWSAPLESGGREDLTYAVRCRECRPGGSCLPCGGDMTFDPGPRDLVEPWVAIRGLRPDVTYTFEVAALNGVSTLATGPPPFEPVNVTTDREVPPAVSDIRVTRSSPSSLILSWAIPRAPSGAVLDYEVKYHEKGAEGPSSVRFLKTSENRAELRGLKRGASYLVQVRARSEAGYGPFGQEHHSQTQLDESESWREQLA
Experiment: ELISA; EphB4 Fc (1 µg/ml) on protein A-coated plates, 3 hours with 0.02 nM ephrin-B2 AP in culture medium diluted in TBST; wells with human Fc instead of EphB4 Fc subtracted as background; only the target purified

The chains behind the UniProt entries cited, without tags or fusion partners. Residues count along the entry.
UniProt P52800, residues 29-232: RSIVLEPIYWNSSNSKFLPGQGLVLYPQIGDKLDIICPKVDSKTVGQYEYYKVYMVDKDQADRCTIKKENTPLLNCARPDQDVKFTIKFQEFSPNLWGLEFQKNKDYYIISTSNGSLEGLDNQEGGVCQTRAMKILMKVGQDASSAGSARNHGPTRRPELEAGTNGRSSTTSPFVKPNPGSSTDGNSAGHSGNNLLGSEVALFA

mouse ephrin-B2 AP (from UniProt P52800 29-232) (ligand)
binding: binds

Source: article PMC3237458, “PEGylation Potentiates the Effectiveness of an Antagonistic Peptide That Targets the EphB4 Receptor with Nanomolar Affinity” (PLoS ONE, 2011)
